Reference: the supplement of paper PMC12067093, “Discovery and optimisation of a covalent ligand for TRIM25 and its application to targeted protein ubiquitination” (Chemical Science, 2025)
This is one part of the list.

Protein sequences, listed by entry. Tags and fused reporters are not part of them. Lines headed by an entry give the natural chain unless they say otherwise; changes in a name come on top.
UniProt P40939: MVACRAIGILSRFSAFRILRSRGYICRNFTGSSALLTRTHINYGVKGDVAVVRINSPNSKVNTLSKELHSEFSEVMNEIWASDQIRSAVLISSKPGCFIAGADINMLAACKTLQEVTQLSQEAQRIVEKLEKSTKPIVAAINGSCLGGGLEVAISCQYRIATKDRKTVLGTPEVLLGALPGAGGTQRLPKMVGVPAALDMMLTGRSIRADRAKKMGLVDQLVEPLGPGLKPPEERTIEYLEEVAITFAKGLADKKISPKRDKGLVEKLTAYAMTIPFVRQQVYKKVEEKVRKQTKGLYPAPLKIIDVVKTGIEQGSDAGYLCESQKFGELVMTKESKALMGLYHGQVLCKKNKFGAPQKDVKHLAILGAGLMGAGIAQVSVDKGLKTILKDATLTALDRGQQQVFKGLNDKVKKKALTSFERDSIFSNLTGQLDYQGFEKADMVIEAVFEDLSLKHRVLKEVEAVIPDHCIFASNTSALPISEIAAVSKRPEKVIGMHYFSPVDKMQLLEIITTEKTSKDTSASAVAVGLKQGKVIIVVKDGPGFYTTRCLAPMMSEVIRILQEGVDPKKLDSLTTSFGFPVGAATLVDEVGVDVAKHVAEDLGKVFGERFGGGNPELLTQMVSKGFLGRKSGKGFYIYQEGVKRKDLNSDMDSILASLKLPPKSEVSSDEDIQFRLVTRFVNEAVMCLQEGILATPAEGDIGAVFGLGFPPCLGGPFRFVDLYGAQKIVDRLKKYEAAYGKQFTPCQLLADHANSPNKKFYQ
UniProt Q12789: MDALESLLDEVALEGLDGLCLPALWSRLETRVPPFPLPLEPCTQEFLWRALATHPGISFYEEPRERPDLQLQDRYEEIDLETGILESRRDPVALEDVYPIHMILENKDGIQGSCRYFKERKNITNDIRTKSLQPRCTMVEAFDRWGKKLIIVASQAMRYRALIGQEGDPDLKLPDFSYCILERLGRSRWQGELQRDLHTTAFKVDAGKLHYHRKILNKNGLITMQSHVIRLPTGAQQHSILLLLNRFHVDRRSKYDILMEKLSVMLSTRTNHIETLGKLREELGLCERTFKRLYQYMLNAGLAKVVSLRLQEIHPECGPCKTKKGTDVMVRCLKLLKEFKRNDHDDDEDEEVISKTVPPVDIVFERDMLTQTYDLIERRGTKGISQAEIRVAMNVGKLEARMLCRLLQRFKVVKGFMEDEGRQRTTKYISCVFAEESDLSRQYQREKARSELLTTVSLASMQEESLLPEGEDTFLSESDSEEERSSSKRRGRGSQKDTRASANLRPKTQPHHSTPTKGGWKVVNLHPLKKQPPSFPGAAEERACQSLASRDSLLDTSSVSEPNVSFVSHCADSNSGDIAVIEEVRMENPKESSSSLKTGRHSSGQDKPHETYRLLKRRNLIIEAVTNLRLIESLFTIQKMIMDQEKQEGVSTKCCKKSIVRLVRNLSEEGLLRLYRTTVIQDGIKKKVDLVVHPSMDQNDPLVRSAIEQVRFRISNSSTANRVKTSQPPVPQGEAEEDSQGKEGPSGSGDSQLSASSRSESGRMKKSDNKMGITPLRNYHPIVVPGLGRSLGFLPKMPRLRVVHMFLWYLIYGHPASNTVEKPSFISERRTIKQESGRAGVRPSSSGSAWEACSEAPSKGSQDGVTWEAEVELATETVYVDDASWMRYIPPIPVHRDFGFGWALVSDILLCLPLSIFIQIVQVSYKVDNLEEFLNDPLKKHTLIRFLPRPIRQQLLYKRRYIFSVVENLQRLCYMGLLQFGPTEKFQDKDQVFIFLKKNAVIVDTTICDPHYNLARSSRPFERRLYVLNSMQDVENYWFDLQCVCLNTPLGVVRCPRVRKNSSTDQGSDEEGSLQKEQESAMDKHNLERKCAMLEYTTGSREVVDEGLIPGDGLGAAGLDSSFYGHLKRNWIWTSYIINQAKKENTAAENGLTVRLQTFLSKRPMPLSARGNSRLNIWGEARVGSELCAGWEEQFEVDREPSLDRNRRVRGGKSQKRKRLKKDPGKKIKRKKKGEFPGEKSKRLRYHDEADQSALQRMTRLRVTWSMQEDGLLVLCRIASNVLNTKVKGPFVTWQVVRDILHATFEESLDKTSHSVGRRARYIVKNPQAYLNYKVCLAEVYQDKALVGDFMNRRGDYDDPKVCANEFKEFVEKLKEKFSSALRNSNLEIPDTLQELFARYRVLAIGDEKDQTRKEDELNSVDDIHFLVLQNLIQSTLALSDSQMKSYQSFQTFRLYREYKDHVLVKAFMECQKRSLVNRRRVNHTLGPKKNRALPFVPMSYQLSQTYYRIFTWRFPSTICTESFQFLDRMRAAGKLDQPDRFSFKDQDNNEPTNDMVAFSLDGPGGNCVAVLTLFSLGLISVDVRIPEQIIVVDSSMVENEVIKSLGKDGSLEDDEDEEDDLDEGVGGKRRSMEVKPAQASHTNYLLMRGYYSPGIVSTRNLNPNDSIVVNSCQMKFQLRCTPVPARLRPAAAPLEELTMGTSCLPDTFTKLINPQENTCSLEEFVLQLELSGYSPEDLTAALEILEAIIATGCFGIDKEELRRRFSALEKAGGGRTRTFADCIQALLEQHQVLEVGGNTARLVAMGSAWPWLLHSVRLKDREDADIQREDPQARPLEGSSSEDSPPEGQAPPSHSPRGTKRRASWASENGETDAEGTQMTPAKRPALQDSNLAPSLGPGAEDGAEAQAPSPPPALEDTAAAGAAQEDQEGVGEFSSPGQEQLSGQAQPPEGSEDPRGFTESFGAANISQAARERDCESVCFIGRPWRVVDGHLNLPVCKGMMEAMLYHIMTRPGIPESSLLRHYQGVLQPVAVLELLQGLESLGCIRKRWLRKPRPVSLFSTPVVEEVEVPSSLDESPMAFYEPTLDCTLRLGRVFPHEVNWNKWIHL
UniProt Q9H6D7: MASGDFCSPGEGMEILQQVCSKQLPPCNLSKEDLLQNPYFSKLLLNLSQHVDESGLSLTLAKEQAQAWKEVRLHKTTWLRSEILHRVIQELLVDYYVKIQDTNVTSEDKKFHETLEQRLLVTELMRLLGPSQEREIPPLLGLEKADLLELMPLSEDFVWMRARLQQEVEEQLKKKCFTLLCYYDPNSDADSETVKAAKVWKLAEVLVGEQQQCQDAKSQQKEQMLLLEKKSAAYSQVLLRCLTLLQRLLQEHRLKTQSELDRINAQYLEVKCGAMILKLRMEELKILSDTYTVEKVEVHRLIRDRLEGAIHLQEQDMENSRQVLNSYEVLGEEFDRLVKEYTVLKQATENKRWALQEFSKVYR
UniProt Q8TD30: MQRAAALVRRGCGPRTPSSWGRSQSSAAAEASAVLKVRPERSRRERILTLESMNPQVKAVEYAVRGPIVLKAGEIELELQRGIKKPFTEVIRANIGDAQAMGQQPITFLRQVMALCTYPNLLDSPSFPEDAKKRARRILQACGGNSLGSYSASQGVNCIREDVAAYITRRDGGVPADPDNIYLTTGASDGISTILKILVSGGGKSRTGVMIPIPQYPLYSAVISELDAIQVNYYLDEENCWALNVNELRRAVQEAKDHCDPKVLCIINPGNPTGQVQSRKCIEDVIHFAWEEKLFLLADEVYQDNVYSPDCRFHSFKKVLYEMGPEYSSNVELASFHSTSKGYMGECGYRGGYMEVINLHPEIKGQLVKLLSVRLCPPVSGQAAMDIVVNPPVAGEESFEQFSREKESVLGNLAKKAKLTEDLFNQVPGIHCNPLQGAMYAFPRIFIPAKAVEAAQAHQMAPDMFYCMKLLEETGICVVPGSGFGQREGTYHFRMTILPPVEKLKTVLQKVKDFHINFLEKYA
UniProt P07203, whole entry, looked up: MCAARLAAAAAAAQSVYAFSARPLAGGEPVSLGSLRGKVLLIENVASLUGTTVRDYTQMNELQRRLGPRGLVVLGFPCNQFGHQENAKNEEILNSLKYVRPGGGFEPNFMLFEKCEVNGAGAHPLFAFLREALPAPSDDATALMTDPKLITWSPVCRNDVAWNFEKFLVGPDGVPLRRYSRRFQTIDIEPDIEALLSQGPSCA
UniProt P21266: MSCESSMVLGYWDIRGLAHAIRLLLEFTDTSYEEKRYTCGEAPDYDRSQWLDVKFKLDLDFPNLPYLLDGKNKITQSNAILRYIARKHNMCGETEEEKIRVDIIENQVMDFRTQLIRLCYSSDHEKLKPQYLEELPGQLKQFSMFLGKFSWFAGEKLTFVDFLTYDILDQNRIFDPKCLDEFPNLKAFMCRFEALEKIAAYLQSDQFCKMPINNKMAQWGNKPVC
UniProt Q14687: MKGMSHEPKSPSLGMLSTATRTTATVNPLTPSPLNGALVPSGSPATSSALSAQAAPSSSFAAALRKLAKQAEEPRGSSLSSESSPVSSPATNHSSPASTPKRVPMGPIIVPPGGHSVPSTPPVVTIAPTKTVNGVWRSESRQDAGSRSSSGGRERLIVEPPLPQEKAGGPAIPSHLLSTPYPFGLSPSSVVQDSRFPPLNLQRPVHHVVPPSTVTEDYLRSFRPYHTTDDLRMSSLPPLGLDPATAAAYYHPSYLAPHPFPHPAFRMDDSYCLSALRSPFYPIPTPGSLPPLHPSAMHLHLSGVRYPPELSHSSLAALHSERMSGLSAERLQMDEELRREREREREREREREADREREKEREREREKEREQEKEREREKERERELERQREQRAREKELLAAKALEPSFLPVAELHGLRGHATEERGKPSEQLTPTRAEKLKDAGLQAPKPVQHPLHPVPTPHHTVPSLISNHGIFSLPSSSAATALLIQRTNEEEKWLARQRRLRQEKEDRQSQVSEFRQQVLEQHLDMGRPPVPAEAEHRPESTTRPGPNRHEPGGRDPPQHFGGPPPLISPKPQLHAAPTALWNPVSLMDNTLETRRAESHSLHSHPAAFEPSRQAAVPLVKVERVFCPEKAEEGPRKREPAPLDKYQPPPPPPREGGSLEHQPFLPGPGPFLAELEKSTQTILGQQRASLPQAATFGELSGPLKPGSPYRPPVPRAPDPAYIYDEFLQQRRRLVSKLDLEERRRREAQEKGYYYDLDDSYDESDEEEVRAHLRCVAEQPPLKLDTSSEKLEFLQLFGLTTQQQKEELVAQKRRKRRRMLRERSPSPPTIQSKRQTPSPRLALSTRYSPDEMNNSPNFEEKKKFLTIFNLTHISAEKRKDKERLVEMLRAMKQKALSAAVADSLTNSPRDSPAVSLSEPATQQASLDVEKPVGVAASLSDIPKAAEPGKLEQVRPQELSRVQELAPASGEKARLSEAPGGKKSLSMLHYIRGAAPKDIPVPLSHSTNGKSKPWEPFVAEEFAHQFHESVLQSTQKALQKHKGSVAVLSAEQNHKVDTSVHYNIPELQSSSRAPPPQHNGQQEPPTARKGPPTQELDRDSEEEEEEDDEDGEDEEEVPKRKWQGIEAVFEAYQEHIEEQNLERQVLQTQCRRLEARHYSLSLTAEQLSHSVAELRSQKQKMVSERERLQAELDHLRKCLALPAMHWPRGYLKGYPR
UniProt P15170, whole entry, looked up: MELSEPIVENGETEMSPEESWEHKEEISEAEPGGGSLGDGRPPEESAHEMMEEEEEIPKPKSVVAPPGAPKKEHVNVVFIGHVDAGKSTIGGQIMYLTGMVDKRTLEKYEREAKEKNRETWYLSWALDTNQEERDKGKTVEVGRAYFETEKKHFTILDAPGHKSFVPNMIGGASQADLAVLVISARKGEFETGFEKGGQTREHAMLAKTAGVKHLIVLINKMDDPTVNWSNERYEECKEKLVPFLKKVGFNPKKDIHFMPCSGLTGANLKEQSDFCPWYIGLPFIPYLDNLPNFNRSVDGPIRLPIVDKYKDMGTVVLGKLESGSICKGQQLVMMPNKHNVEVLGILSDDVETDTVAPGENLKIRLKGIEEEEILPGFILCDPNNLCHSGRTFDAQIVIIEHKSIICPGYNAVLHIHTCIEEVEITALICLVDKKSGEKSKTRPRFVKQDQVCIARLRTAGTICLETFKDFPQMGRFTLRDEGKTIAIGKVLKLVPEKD
UniProt P09488: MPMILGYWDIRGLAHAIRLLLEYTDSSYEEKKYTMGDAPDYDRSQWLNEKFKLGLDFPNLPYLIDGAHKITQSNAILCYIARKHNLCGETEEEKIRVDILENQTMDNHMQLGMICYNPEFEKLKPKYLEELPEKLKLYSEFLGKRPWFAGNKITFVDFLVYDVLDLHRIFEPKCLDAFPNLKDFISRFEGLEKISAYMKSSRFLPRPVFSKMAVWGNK
UniProt Q9BQ67, whole entry, looked up: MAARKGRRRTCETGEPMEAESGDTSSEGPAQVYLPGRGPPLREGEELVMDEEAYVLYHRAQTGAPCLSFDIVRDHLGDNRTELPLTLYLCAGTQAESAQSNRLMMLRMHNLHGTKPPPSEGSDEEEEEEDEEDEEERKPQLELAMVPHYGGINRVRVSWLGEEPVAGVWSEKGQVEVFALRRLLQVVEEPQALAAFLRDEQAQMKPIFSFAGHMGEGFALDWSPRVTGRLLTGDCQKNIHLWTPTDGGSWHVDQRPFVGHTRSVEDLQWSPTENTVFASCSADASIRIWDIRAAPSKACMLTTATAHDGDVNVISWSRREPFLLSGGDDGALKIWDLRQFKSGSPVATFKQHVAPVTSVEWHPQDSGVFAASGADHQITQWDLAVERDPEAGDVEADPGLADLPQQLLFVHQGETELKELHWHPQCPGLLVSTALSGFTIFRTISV

Compound: CC1Cc2ccccc2N1C(=O)C1CCCN(C1)C(=O)CCl (mixture of isomers) [TRIM25 ligand 11 (diastereomer mixture)]
Assay: probe-labelled cysteine peptide fold change vs DMSO (competition) (log2 fold change); higher = less target engagement (more negative = stronger competition)
Conditions: THP-1, incubation time: 4 h
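Further: competitive chemoproteomic profiling in live THP-1 cells with an iodoacetamide desthiobiotin (IA-DTB) probe, comparing probe-labelled peptide intensities in compound-treated cells against DMSO-treated controls.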

Target	probe-labelled cysteine peptide fold change (10 µM)	probe-labelled cysteine peptide fold change (50 µM)
GRK6_P43250_57_DYHSLCER (UniProt P43250)	-0.111	-0.0656
GSR_P00390_102_LGGTCVNVGCVPK (UniProt P00390)	0.0515	0.0119
HADHA_P40939_747_QFTPCQLLADHANSPNKK (UniProt P40939)	-0.064	-0.094
GSR_P00390_107_LGGTCVNVGCVPK (UniProt P00390)	-9.54e-05	0.0311
GTPBP2_Q9BX10_249_TAEEICESSSK (UniProt Q9BX10)	0.027	0.0181
GTF2H4_Q92759_16_VHLQCR (UniProt Q92759)	-0.0652	-0.00142
GTF3C1_Q12789_1999_VVDGHLNLPVCK (UniProt Q12789)	0.069	-0.0366
HAUS4_Q9H6D7_213_LAEVLVGEQQQCQDAK (UniProt Q9H6D7)	-0.1	-0.181
GPT2_Q8TD30_432_LTEDLFNQVPGIHCNPLQGAMYAFPR (UniProt Q8TD30)	-0.0559	-0.0781
GPX1_P07203_156_LITWSPVCR (UniProt P07203)	-0.0459	0.00151
GSTM3_P21266_3_SCESSMVLGYWDIR (UniProt P21266)	-0.13	-0.535
GTF2I_P78347_34_MVVTFLMSALESMCK (UniProt P78347)	-0.142	-0.099
GTF3C1_Q12789_1008_NAVIVDTTICDPHYNLAR (UniProt Q12789)	0.0325	0.0452
GTF2H2_Q13888_139_AVDMTCHGEPSLYNSLSIAMQTLK (UniProt Q13888)	0.0294	0.0894
GRN_P28799_164+165+171_VHCCPHGAFCDLVHTR (UniProt P28799)	0.16	-0.0331
GTF3C1_Q12789_1336_VCLAEVYQDK (UniProt Q12789)	0.062	0.0257
GSE1_Q14687_1199_CLALPAMHWPR (UniProt Q14687)	-0.0722	0.165
GRN_P28799_558_HCCPAGFR (UniProt P28799)	-0.148	-0.203
GPSM1_Q86YR5_497_APSSDEECFFDLLTK (UniProt Q86YR5)	-0.105	0.0081
GRK2_P25098_72_DFCLNHLEEARPLVEFYEEIKK (UniProt P25098)	0.0128	0.101
GTF3C5_Q9Y5Q8_242_VCTNPVDR (UniProt Q9Y5Q8)	0.0237	0.00476
GSDMD_P57764_56_CVNLSIK (UniProt P57764)	-0.0386	0.0346

Target	probe-labelled cysteine peptide fold change (10 µM)	probe-labelled cysteine peptide fold change (50 µM)
GSN_P06396_672_LFACSNK (UniProt P06396)	0.15	0.113
HAGHL_Q6PII5-2_248_AVPADVLEALCK (UniProt Q6PII5)	-0.171	-0.388
HADHA_P40939_747_QFTPCQLLADHANSPNK (UniProt P40939)	0.12	-0.00386
GSPT1_P15170_453_QDQVCIAR (UniProt P15170)	-0.0211	0.0102
GPX1_P07203_78_GLVVLGFPCNQFGHQENAK (UniProt P07203)	-0.043	0.0745
GRK2_P25098_439_RLGCLGR (UniProt P25098)	-0.00476	-0.0629
GSDMD_P57764_191_FSLPGATCLQGEGQGHLSQK (UniProt P57764)	0.0159	-0.53
GTSE1_Q9NYZ3_539_AVGSPLCVPAR (UniProt Q9NYZ3)	0.0439	0.23
GRAMD1B_Q3KR37_460_ASQESECYVIDAEVLTHDVPYHDYFYTINR (UniProt Q3KR37)	0.00235	-0.073
GTF3C1_Q12789_1188_VGSELCAGWEEQFEVDREPSLDR (UniProt Q12789)	-0.00354	0.0552
GTF3C4_Q9UKN8_129_TEVAECK (UniProt Q9UKN8)	-0.0676	-0.0269
GRPEL2_Q8TAA5_182_LTPIGDKYDPHEHELICHVPAGVGVQPGTVALVR (UniProt Q8TAA5)	-0.0122	0.0426
GSTM1_P09488_174_CLDAFPNLK (UniProt P09488)	0.0148	0.0175
GTPBP1_O00178_515_YQAMVHCGSIR (UniProt O00178)	-0.0472	0.0726
GYS1_P13807_699_ASCTSSTSGSK (UniProt P13807)	-0.136	-0.138
HAUS4_Q9H6D7_272_CGAMILK (UniProt Q9H6D7)	-0.00499	0.197
GPT2_Q8TD30_265_VLCIINPGNPTGQVQSR (UniProt Q8TD30)	-0.07	0.00306
GTF3C1_Q12789_136_CTMVEAFDR (UniProt Q12789)	0.127	0.078
GSDMD_P57764_38_VVQELDHGGEFIPVTSLQSSTGFQPYCLVVR (UniProt P57764)	-0.301	0.0224
GYS1_P13807_251_AAAHCAHVFTTVSQITAIEAQHLLK (UniProt P13807)	0.145	0.111
HACL1_Q9UJ83_392_DCFVVSEGANTMDIGR (UniProt Q9UJ83)	0.00692	0.0733
GTF2E1_P29083_157_CTFCHTEVEEDESAMPK (UniProt P29083)	0.016	0.142

Target	probe-labelled cysteine peptide fold change (10 µM)	probe-labelled cysteine peptide fold change (50 µM)
GTF3C2_Q8WUA4_828_MQEGEGHSQLCLDR (UniProt Q8WUA4)	-0.014	-0.152
HAT1_O14929_120_QIIPPGFCTNTNDFLSLLEK (UniProt O14929)	-0.0149	-0.0407
H2AFY_O75367_276_FVIHCNSPVWGADK (UniProt O75367)	0.129	0.0302
GTF3C5_Q9Y5Q8_242_RVCTNPVDR (UniProt Q9Y5Q8)	-0.101	-0.0886
GRHPR_Q9UBQ7_29_AADCEVEQWDSDEPIPAK (UniProt Q9UBQ7)	-0.343	-0.234
H2AFY_O75367_297_NCLALADDK (UniProt O75367)	-0.0339	-0.0548
GPX4_P36969_102_ILAFPCNQFGK (UniProt P36969)	0.222	0.329
GRWD1_Q9BQ67_11_TCETGEPMEAESGDTSSEGPAQVYLPGR (UniProt Q9BQ67)	0.0545	-0.238
GSN_P06396_331_SEDCFILDHGKDGK (UniProt P06396)	0.104	0.314
GSTM3_P21266_91_HNMCGETEEEK (UniProt P21266)	0.046	-0.0368
GSTM1_P09488_115_IRVDILENQTMDNHMQLGMICYNPEFEK (UniProt P09488)	0.0298	-0.105
GSS_P48637_294_CPDIATQLAGTKK (UniProt P48637)	-0.121	-0.236
HADHA_P40939_349_ALMGLYHGQVLCK (UniProt P40939)	0.0161	-0.0845
GTF3C4_Q9UKN8_441_QNGTVYTCSSDGK (UniProt Q9UKN8)	0.00781	0.155
GRWD1_Q9BQ67_66_AQTGAPCLSFDIVR (UniProt Q9BQ67)	-0.169	-0.206
GRB2_P62993_32_VLNEECDQNWYK (UniProt P62993)	-0.0196	0.0622
HAUS2_Q9NVX0_89_CHTLQSMNNHLEAVLK (UniProt Q9NVX0)	-0.189	-0.0693
GTF2F2_P13984_116_AECRPAASENYMR (UniProt P13984)	-0.0774	-0.231
HACL1_Q9UJ83_307_FIQVDICAEELGNNVKPAVTLLGNIHAVTK (UniProt Q9UJ83)	-0.355	-0.0368
GTF2H4_Q92759_41_LYGHPATCLAVFR (UniProt Q92759)	-0.0121	0.156
HAGH_Q16775_157+164_CLATPCHTSGHICYFVSK (UniProt Q16775)	0.3	-0.0168
HAGHL_Q6PII5_170_VFCGHEHTLSNLEFAQK (UniProt Q6PII5)	0.0132	-0.0981

Target	probe-labelled cysteine peptide fold change (10 µM)	probe-labelled cysteine peptide fold change (50 µM)
GSR_P00390_467_MVCANK (UniProt P00390)	0.218	0.213
GYS1_P13807_214_YLCAGAVDFYNNLENFNVDK (UniProt P13807)	-0.0166	0.11
GTF2B_Q00403_37_AGDMICPECGLVVGDR (UniProt Q00403)	0.000693	0.073
GPN1_Q9HCN4_21_HPVCLLVLGMAGSGK (UniProt Q9HCN4)	-0.167	-0.0368
GSPT1_P15170_453_FVKQDQVCIAR (UniProt P15170)	-0.525	-0.242
GSDME_O60443_180_CGGIVGIQTK (UniProt O60443)	-0.066	-0.166
GRN_P28799_533_DVECGEGHFCHDNQTCCR (UniProt P28799)	-0.262	-0.177
GUSB_P08236_396_TSHYPYAEEVMQMCDR (UniProt P08236)	0.00387	0.183
GTPBP6_O43824_99_VCLVHPDVK (UniProt O43824)	-0.0184	-0.0422
GRN_P28799_481_QHCCPAGYTCNVK (UniProt P28799)	-0.0356	0.144
GRN_P28799_165_VHCCPHGAFCDLVHTR (UniProt P28799)	0.103	0.382
GSS_P48637_422_VVQCISELGIFGVYVR (UniProt P48637)	-0.15	-0.306
HADHB_P55084_458_EGGQYGLVAACAAGGQGHAMIVEAYPK (UniProt P55084)	-0.107	-0.0403
HADHA_P40939_550_CLAPMMSEVIR (UniProt P40939)	0.111	0.162
GSDMD_P57764_38_RVVQELDHGGEFIPVTSLQSSTGFQPYCLVVR (UniProt P57764)	0.181	0.095
GRAMD1A_Q96CP6_576_AHGDGPQHPDPDPCAR (UniProt Q96CP6)	0.0876	-0.138
GSE1_Q14687_777_CVAEQPPLK (UniProt Q14687)	-0.136	-0.234
GRAMD4_Q6IC98_463_GNFHEIFNLTENERPLAVCENGWR (UniProt Q6IC98)	0.166	0.172
GSTCD_Q8NEC7_571_EHMILCR (UniProt Q8NEC7)	0.0436	0.126
